Reference: PubChem BioAssay AID2551 (National Center for Advancing Translational Sciences (NCATS), 2010)
About 17,000 (5.5%) of roughly 310,000 compounds were called active. Inconclusive results, whose numbers are uncertain, are shown with a selection of clear calls. The call rests on the fitted dose curve; in most records, active means well fitted inhibition curve with a large enough effect; inconclusive means small, poorly fitted or top-dose-only effect, or effect the other way; inactive means no such curve, though single readings can be large or run the other way. A potency beside an inconclusive call is a rough fit, not a confirmed value.

The chains behind the UniProt entries cited, without tags or fusion partners. Where a name states a change or a piece, a line headed by the entry shows the natural chain unless it says otherwise.
UniProt P51450: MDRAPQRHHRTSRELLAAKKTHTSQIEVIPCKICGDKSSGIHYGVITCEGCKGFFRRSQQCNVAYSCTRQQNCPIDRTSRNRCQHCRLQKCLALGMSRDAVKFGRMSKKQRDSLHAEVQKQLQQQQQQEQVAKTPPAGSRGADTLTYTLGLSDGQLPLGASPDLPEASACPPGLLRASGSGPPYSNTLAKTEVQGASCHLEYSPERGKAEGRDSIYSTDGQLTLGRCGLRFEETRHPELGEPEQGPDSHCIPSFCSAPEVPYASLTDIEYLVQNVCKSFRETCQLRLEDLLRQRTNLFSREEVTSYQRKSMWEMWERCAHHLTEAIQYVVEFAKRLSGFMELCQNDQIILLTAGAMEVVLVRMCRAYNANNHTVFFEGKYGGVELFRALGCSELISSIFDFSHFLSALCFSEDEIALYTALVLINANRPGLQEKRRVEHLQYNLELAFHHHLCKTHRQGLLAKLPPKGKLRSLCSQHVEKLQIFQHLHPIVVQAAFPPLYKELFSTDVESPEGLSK

Target: Nuclear receptor ROR-gamma (Mus musculus) (UniProt P51450)
Test: qHTS for inhibitors of ROR gamma transcriptional activity; further: nearly all actives have a fitted effect of over 60% in size
Conditions: Drosophila S2 Gal4-RORgamma UAS-luciferase reporter, 20 h; activity change, negative = inhibition: at 53.6 µM (top of the series)
Outline: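 Drosophila S2 cells stably expressing Gal4-DBD/mouse RORγ fusion under metallothionein promoter plus UAS-luciferase; compound 1 h, then 700 uM CuSO4 induction for 20 h at ambient temperature; inhibition read as reduced luminescence.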
On the % scale 0 is the no-effect control and ±100 the full control effect; potency means the concentration at half of the fitted maximal effect.

SMILES	Potency	activity change, negative = inhibition
CN1CCNC(=O)C1CC(=O)NCC1(c2ccccc2)CCCCC1 (stereo not drawn)	inactive	
Cc1ccc(C(C[N+](=O)[O-])c2c(C)[nH]n(-c3ccccc3)c2=O)cc1 (stereo not drawn)	inconclusive: 20 µM [inhibitor, single point]	
O=C1c2cccc3c(N4CCOCC4)c([N+](=O)[O-])cc(c23)C(=O)N1c1cccc2ccccc12	inactive	
COc1cc(SC)ccc1C(=O)Nc1ccc2c(c1)OCCO2	active: 11.2 µM	
CCN(CC)S(=O)(=O)c1ccc(NC2CCCc3ccccc32)nc1 (stereo not drawn)	inconclusive: 15.8 µM [activator, single point]	
CC(C)(CNC(=O)/C=C/c1ccc(F)cc1)CNC(=O)/C=C/c1ccc(F)cc1	inconclusive: 15.8 µM [activator, single point]	
COc1ccc(NC(C)C(=O)Nc2ccc(C#N)cc2)cc1Cl (stereo not drawn)	inconclusive: 5.62 µM [activator, partial curve]	
CCC(Sc1nncn1C)C(=O)Nc1nnc(-c2ccccc2Cl)s1 (stereo not drawn)	inconclusive: 2.51 µM [activator, partial curve]	
CC(NC(=O)CNC(=S)N(Cc1cccs1)C1CCCC1)c1ccccc1 (stereo not drawn)	inconclusive: 31.6 µM [inhibitor, single point]	
O=C(Nc1ccc2c(c1)OCCO2)C1CCN(c2nnnn2-c2ccccc2)CC1	inconclusive: 0.0794 µM [activator, full curve, poor fit]	
COc1cccc(C(=O)Nc2ncc3c(n2)CC(c2ccc(OC)cc2OC)CC3=O)c1 (stereo not drawn)	inactive	
CCC1=NN(C(=O)Cc2ccc([N+](=O)[O-])cc2)C(O)(c2ccc(Br)cc2)C1 (stereo not drawn)	active: 11.2 µM	
COc1ccc(Cc2nnc(N/N=C/c3ccc(C)o3)[nH]c2=O)cc1	active: 11.2 µM	
Cc1cc(C)nc(/N=C(\N)N(Cc2ccccc2)Cc2ccccc2)n1	active: 11.2 µM	
COc1ccc(NC(=O)CCc2ccc(OC)c(OC)c2)cn1	inactive	
COc1ccc(C2SCCN2S(=O)(=O)c2ccc(NC(C)=O)cc2)cc1OC (stereo not drawn)	inconclusive: 11.2 µM [activator, partial curve]	
COc1cccc2cc(C(C)=O)c(=O)oc12	inconclusive: 0.562 µM [inhibitor, full curve]	
COc1ccc(-n2ccnc2SCC(=O)NCc2ccc(F)cc2)c(OC)c1	inactive	
c1ccc2c(NCCCN3CCOCC3)c3ccccc3nc2c1	inconclusive: 35.5 µM [inhibitor, single point]	
Cc1ccsc1/C=N/NC(=O)c1nnn(-c2nonc2N)c1C(C)C	active: 11.2 µM	
COC(=O)C1=C(C)NC(C)=C(C(=O)OC)C1C(=O)OCC(=O)c1ccc(F)cc1	inactive	
O=C(/C=C/c1cccc([N+](=O)[O-])c1)c1ccc2c(c1)OCCO2	inconclusive: 22.4 µM [inhibitor, single point]	
CN(C)c1ccc(NC(=O)c2ccc(COc3cccc(Cl)c3)o2)cc1	inactive	
CCC(C)NC(=O)c1ccccc1NC(=O)c1ccc(CSc2ccccc2)cc1 (stereo not drawn)	inactive	
O=C(N/N=C\c1ccc(-c2ccccc2[N+](=O)[O-])o1)C1COc2ccccc2O1 (stereo not drawn)	inconclusive: 15.8 µM [inhibitor, single point]	

Structures from the list above containing four or more nitrogen atoms (5):
SMILES	Potency	activity change, negative = inhibition
CCC(Sc1nncn1C)C(=O)Nc1nnc(-c2ccccc2Cl)s1 (stereo not drawn)	inconclusive: 2.51 µM [activator, partial curve]	
O=C(Nc1ccc2c(c1)OCCO2)C1CCN(c2nnnn2-c2ccccc2)CC1	inconclusive: 0.0794 µM [activator, full curve, poor fit]	
COc1ccc(Cc2nnc(N/N=C/c3ccc(C)o3)[nH]c2=O)cc1	active: 11.2 µM	
Cc1cc(C)nc(/N=C(\N)N(Cc2ccccc2)Cc2ccccc2)n1	active: 11.2 µM	
Cc1ccsc1/C=N/NC(=O)c1nnn(-c2nonc2N)c1C(C)C	active: 11.2 µM	

(listing goes on)

SMILES	Potency	activity change, negative = inhibition
Cc1cccc(-c2noc(CNS(=O)(=O)c3ccccc3)n2)c1	inactive	
Cc1cc2nnc(SCC(=O)Nc3cc(S(=O)(=O)N4CCOCC4)ccc3Cl)n2c2ccccc12	inactive	
CC(=O)c1c(C)[nH]c(C(=O)COC(=O)c2cc(S(=O)(=O)N(C)c3ccccc3)ccc2Cl)c1C	inconclusive: 28.2 µM [activator, single point]	
O=C(N/N=C/c1c[nH]c2ccc(Br)cc12)c1ccc2c(c1)OCO2	inconclusive: 22.4 µM [inhibitor, single point]	
CC(/C=C/c1ccco1)=N/NC(=O)c1ccccc1Cl	inconclusive: 35.5 µM [inhibitor, single point]	
CNS(=O)(=O)c1ccc2ccccc2c1	inactive	
Cc1ccc(NC(=S)c2nc3ccccc3[nH]2)cc1	active: 3.16 µM	
Cc1cccc(C(C)C)c1NC(=O)CN(C)Cc1cccc(F)c1	inactive	
Cc1oc2c(F)c(F)c(F)c(F)c2c1S(=O)(=O)Nc1cccc(C(F)(F)F)c1	inconclusive: 35.5 µM [inhibitor, single point]	
O=C(N/N=C/c1c[nH]c2ccccc12)c1cccs1	inconclusive: 35.5 µM [inhibitor, single point]	
CCC(C)NC(=O)C(=O)NCc1ccncc1 (stereo not drawn)	inconclusive: 31.6 µM [activator, single point]	
COc1ccc(/C=N/NC(=O)c2nonc2C)cc1	inconclusive: 0.158 µM [activator, full curve]	
CC(C)(C)c1nnc2sc(SCC(=O)c3ccccc3)nn2c1=O		inactive: 1.6% [at 0.365 µM]
C=C(CC)C(=O)c1ccc(OCC(=O)O)c(Cl)c1Cl	inconclusive: 14.1 µM [inhibitor, single point]	
COC(=O)c1cc(OC)c(OC)cc1NC(=O)CCCCCN1C(=O)CCC1=O	inactive	
Cc1ccc(-c2cc[n+](Cc3ccccc3)cc2)cc1	inconclusive: 14.1 µM [activator, partial curve]	
O=c1c2c(nc3cc(-c4ccccc4Cl)[nH]n13)CCS2	inconclusive: 35.5 µM [inhibitor, single point]	
COc1ccccc1NC(=O)Nc1ccc2c(c1)nc(C)n2C	active: 10 µM	
CC1=CC2=NC(=O)/C(=C\c3ccc(OC(=O)c4ccco4)cc3)C(=N)N2O1	inactive	
Cc1csc(NC(=O)c2nc3nc(C)cc(C)n3n2)n1	inconclusive: 2.82 µM [inhibitor, single point]	
CC1Cc2ccccc2N1CC(=O)Nc1ccc2c(c1)OC(F)(F)O2 (stereo not drawn)	inconclusive: 11.2 µM [activator, partial curve, poor fit]	
CC(NC(=O)COC(=O)c1cc(=O)[nH]c2ccccc12)c1ccccc1 (stereo not drawn)	inconclusive: 1.41 µM [activator, full curve, poor fit]	
CCCOc1ccccc1NC(=O)c1c(-c2ccccc2)noc1C	inconclusive: 35.5 µM [activator, single point]	
Cc1nonc1C(=O)N/N=C/c1ccc([N+](=O)[O-])o1	inconclusive: 35.5 µM [inhibitor, single point]	
COc1ccccc1C(=O)Nc1ccc2c(c1)CCCN2C(=O)c1ccccc1	inactive	

SMILES	Potency	activity change, negative = inhibition
Cc1ccc(S(=O)(=O)N2CCN(c3ccccc3)CC2)c(C)c1	inconclusive: 0.126 µM [inhibitor, single point]	
Clc1ccc2c(c1)-c1nnc(Br)n1-c1ccccc1S2	inconclusive: 35.5 µM [activator, single point]	
CCN1CCN(CCc2nc3cc(NC(=O)COc4ccc(Cl)cc4)ccc3n2C)CC1	inactive	
CCc1ccc(NC(=S)N2CCN(S(=O)(=O)c3ccccc3)CC2)cc1	active: 17.8 µM	
COc1ccc(NC(=O)c2cc(S(=O)(=O)N3CCCC3)ccc2OC)cc1	inactive	
CSc1ncccc1C(=O)Nc1nc2ccc(Oc3ccccc3)cc2s1	active: 10 µM	
S=C(NCc1ccco1)Nc1ccc(Cl)cc1	active: 11.2 µM	
CCN(CC)c1ccc(/C=N/NC(=O)c2cccc(S(=O)(=O)N3CCOCC3)c2)c(O)c1	active: 2.82 µM	
O=C(COC(=O)Cn1cnc2ccccc21)Nc1ccc2c(c1)OCCO2	inconclusive: 7.94 µM [inhibitor, single point]	
COc1cc(NC(=O)COC(=O)c2n[nH]c3ccccc23)c(C)cc1[N+](=O)[O-]	inconclusive: 11.2 µM [activator, partial curve]	
CNC(=O)/C(C#N)=c1\s/c(=C/C(=O)OC)c(=O)n1-c1ccccc1	inconclusive: 10 µM [inhibitor, partial curve]	
NC(=O)C1CCN(CC(=O)c2c[nH]c3ccc(F)cc23)CC1	inactive	
O=C(NCCN1CCOCC1)NC1(C(F)(F)F)Oc2ccc(Cl)cc2O1 (stereo not drawn)	active: 0.316 µM	
CCn1c(O)c(C=NC2CCCC(C)C2C)sc1=S (stereo not drawn)	inconclusive: 11.2 µM [activator, single point]	
Nc1nc(Nc2ccccc2)nc(NCc2ccco2)c1[N+](=O)[O-]	inconclusive: 35.5 µM [activator, single point]	
Cc1cccc(C(=O)Nc2ccc(NC(=O)Cc3ccc(Cl)cc3)cc2)c1	inconclusive: 35.5 µM [inhibitor, single point]	
Cc1ccc2c(c1)c1nc3ccccc3nc1n2C	inactive	
Nc1nnn(Cc2ccccc2)n1	inconclusive: 14.1 µM [activator, partial curve]	
CC1CCCC(C)N1C(=O)CSc1nnc(NC(=O)Cc2cccs2)s1 (stereo not drawn)	inconclusive: 35.5 µM [inhibitor, single point]	
CC1CCCCN1c1nnc(NC(=O)c2cc(-c3ccc(Br)cc3)on2)s1 (stereo not drawn)	inconclusive: 17.8 µM [inhibitor, single point]	
COc1ccccc1C(=O)Nc1ccc(S(=O)(=O)Nc2nccs2)cc1	inconclusive: 15.8 µM [inhibitor, single point]	
CC1CC[C@@]23CCC4(C)[C@@]5(C)CCC6C(C)(C)C(=O)CC[C@@]6(C)C5C=C[C@@]4(OC2=O)C3C1C (stereo partly drawn)	inconclusive: 0.631 µM [inhibitor, full curve, poor fit]	
CCCNC(=O)COc1ccc(-c2nn(C)c(=O)c3ccccc23)cc1	inconclusive: 31.6 µM [activator, single point]	
